Assay [1] concerns the target T1, Dlk2 (endogenous, MCF-7 cells) (human (endogenous in MCF-7)) (UniProt Q6UY11).
T1 sequence: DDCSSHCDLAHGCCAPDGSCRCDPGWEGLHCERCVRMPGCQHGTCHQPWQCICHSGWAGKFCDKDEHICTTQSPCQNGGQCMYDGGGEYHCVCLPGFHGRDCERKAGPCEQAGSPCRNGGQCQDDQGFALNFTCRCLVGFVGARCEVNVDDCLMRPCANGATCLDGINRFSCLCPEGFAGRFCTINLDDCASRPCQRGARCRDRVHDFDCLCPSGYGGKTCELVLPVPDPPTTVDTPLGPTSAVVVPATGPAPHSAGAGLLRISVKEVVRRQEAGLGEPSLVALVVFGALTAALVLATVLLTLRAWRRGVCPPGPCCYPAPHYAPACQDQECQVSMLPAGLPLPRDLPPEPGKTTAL
The experiment in a line: co-IP.

Assay [2] deals with T2, Human Dlk2 with DKK tag, over-expressed in MCF-7 (human) (UniProt Q6UY11).
T2 sequence: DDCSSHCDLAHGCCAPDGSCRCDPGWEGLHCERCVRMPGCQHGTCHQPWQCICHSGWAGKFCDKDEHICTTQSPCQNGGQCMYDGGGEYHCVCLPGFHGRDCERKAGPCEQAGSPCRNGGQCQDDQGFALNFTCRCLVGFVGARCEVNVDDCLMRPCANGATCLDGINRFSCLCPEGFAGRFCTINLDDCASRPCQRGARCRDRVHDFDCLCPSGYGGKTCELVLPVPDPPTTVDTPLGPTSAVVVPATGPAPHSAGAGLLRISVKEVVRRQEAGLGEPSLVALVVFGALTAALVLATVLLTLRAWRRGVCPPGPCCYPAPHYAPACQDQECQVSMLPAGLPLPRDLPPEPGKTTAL
Kind of assay: co-IP.

Assay [3] concerns the target T3, Human Dlk2 full length (human) (UniProt Q6UY11).
T3 sequence: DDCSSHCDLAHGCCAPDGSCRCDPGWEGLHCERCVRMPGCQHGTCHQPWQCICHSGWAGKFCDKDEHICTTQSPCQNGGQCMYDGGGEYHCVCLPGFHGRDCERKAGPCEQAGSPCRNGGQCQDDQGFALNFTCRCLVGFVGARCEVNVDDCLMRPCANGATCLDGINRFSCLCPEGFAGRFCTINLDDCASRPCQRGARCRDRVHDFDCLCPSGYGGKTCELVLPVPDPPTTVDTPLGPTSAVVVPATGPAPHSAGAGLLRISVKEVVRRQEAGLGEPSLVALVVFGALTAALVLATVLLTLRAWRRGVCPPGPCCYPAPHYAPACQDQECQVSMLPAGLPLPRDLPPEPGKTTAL
The experiment in a line: SPR. (Surface plasmon resonance follows binding to a sensor surface in real time, without labels.)

Assay [4] concerns the target T4, Human Dlk2 extracellular domain (Dlk2EC, residues 1-306) (human) (UniProt Q6UY11).
T4 sequence: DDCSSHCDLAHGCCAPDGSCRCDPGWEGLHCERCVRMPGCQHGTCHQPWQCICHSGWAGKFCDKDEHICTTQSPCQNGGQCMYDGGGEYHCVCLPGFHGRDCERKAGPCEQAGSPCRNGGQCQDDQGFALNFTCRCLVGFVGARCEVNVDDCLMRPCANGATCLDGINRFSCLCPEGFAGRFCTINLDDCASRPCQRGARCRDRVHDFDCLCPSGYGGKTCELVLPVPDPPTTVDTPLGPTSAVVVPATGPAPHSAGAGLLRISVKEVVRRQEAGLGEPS
Kind of assay: SPR.

Our source for the binding values is paper doi:10.1101/2023.07.20.549453 (bioRxiv, 2023).

No constants are given. Whether binding was seen depends on the method and setting. For part of these data: Binding seen in cells or lysates may run through a third protein. Some entries that bind do so weakly or less than the wild type. For part of these data: Sequences can lack the tags named with a protein.

B1: Numb (endogenous, MCF-7 cells) (protein, UniProt P49757 1-651)
chain: MNKLRQSFRRKKDVYVPEASRPHQWQTDEEGVRTGKCSFPVKYLGHVEVDESRGMHICEDAVKRLKAERKFFKGFFGKTGKKAVKAVLWVSADGLRVVDEKTKDLIVDQTIEKVSFCAPDRNFDRAFSYICRDGTTRRWICHCFMAVKDTGERLSHAVGCAFAACLERKQKREKECGVTATFDASRTTFTREGSFRVTTATEQAEREEIMKQMQDAKKAETDKIVVGSSVAPGNTAPSPSSPTSPTSDATTSLEMNNPHAIPRRHAPIEQLARQGSFRGFPALSQKMSPFKRQLSLRINELPSTMQRKTDFPIKNAVPEVEGEAESISSLCSQITNAFSTPEDPFSSAPMTKPVTVVAPQSPTFQANGTDSAFHVLAKPAHTALAPVAMPVRETNPWAHAPDAANKEIAATCSGTEWGQSSGAASPGLFQAGHRRTPSEADRWLEEVSKSVRAQQPQASAAPLQPVLQPPPPTAISQPASPFQGNAFLTSQPVPVGVVPALQPAFVPAQSYPVANGMPYPAPNVPVVGITPSQMVANVFGTAGHPQAAHPHQSPSLVRQQTFPHYEASSATTSPFFKPPAQHLNGSAAFNGVDDGRLASADRHTEVPTGTCPVDPFEAQWAALENKSKQRTNPSPTNPFSSDLQKTFEIEL
In the case of B1, the binding result in assay [1] and in assay [2] was “binds” each time.

B2: Human Numb full-length (protein, UniProt P49757 1-651)
chain: MNKLRQSFRRKKDVYVPEASRPHQWQTDEEGVRTGKCSFPVKYLGHVEVDESRGMHICEDAVKRLKAERKFFKGFFGKTGKKAVKAVLWVSADGLRVVDEKTKDLIVDQTIEKVSFCAPDRNFDRAFSYICRDGTTRRWICHCFMAVKDTGERLSHAVGCAFAACLERKQKREKECGVTATFDASRTTFTREGSFRVTTATEQAEREEIMKQMQDAKKAETDKIVVGSSVAPGNTAPSPSSPTSPTSDATTSLEMNNPHAIPRRHAPIEQLARQGSFRGFPALSQKMSPFKRQLSLRINELPSTMQRKTDFPIKNAVPEVEGEAESISSLCSQITNAFSTPEDPFSSAPMTKPVTVVAPQSPTFQANGTDSAFHVLAKPAHTALAPVAMPVRETNPWAHAPDAANKEIAATCSGTEWGQSSGAASPGLFQAGHRRTPSEADRWLEEVSKSVRAQQPQASAAPLQPVLQPPPPTAISQPASPFQGNAFLTSQPVPVGVVPALQPAFVPAQSYPVANGMPYPAPNVPVVGITPSQMVANVFGTAGHPQAAHPHQSPSLVRQQTFPHYEASSATTSPFFKPPAQHLNGSAAFNGVDDGRLASADRHTEVPTGTCPVDPFEAQWAALENKSKQRTNPSPTNPFSSDLQKTFEIEL
Regarding B2, the binding entry in assay [3] is “binds”.

B3: Human SNAP43 (SNAPC1) (protein, UniProt Q16533 1-368)
chain: MGTPPGLQTDCEALLSRFQETDSVRFEDFTELWRNMKFGTIFCGRMRNLEKNMFTKEALALAWRYFLPPYTFQIRVGALYLLYGLYNTQLCQPKQKIRVALKDWDEVLKFQQDLVNAQHFDAAYIFRKLRLDRAFHFTAMPKLLSYRMKKKIHRAEVTEEFKDPSDRVMKLITSDVLEEMLNVHDHYQNMKHVISVDKSKPDKALSLIKDDFFDNIKNIVLEHQQWHKDRKNPSLKSKTNDGEEKMEGNSQETERCERAESLAKIKSKAFSVVIQASKSRRHRQVKLDSSDSDSASGQGQVKATRKKEKKERLKPAGRKMSLRNKGNVQNIHKEDKPLSLSMPVITEEEENESLSGTEFTASKKRRKH
As for B3, in assay [4], the binding result was “no binding (tested: 20 nM)”.

B4: Human B7-H2-Fc Chimera (Fc fusion, UniProt O75144 19-256)
chain: DTQEKEVRAMVGSDVELSCACPEGSRFDLNDVYVYWQTSESKTVVTYHIPQNSSLENVDSRYRNRALMSPAGMLRGDFSLRLFNVTPQDEQKFHCLVLSQSLGFQEVLSVEVTLHVAANFSVPVVSAPHSPSQDELTFTCTSINGYPRPNVYWINKTDNSLLDQALQNDTVFLNMRGLYDVVSVLRIARTPSVNIGCCIENVLLQQNLTVGSQTGNDIGERDKITENPVSTGEKNAAT
As for B4, in assay [4], the binding result is “no binding (tested: 20 nM)”.

B5: Human MTERF (MTERF1) (protein, UniProt Q99551 58-399)
chain: FGVKCHNTDSEPLKNEDLLKNLLTMGVDIDMARKRQPGVFHRMITNEQDLKMFLLSKGASKEVIASIISRYPRAITRTPENLSKRWDLWRKIVTSDLEIVNILERSPESFFRSNNNLNLENNIKFLYSVGLTRKCLCRLLTNAPRTFSNSLDLNKQMVEFLQAAGLSLGHNDPADFVRKIIFKNPFILIQSTKRVKANIEFLRSTFNLNSEELLVLICGPGAEILDLSNDYARRSYANIKEKLFSLGCTEEEVQKFVLSYPDVIFLAEKKFNDKIDCLMEENISISQIIENPRVLDSSISTLKSRIKELVNAGCNLSTLNITLLSWSKKRYEAKLKKLSRFA
In the case of B5, the binding entry in assay [4] was “no binding (tested: 20 nM)”.
